The other results are listed elsewhere or left out.

The subject of the assay is T1, CTL2-GFP (C. trachomatis L2/434/Bu, GFP-expressing).
T1 construct: L2/434/Bu, GFP-expressing
Details: species or system HeLa; Intracellular C. trachomatis growth in HeLa cells, bulk GFP fluorescence relative to DMSO. Conditions: bulk GFP, single well; 28.5 h, 10 µM; inhibitor.
Regarding `O=C(Nc1ccccc1C(=O)N1CCOCC1)C1CCN(C(=O)c2ccco2)CC1` [CBK270272], the “% of control remaining” value is reported as 102.094%.

Regarding `O=C(NCCOc1ccccc1F)C1CC(=O)N(Cc2ccccn2)C1` (stereo not shown) [CBK304632], the “% of control remaining” value is recorded as 102.094%.

As to `CC(=O)Nc1ccc(NC(=O)CC2(CC(=O)O)CCCCC2)cc1` [CBK299816], the “% of control remaining” value was 129.83%.

Turning to `COc1cc2c(cc1OC)CN(/C=N/c1sc3c(c1C#N)CC(C)(C)NC3(C)C)CC2` [CBK262918], the “% of control remaining” value is 100%.

Turning to `CC(=O)NS(=O)(=O)c1ccc(NC(=O)c2cn(-c3ccccc3)nc2-c2cccs2)cc1` [CBK296125], the “% of control remaining” value came out at 135.314%.

Turning to `O=C1CC2(CCCCC2)C(C(=O)O)N1` (stereo not shown) [CBK009895], the “% of control remaining” value is reported as 118.335%.

Consider `NC(=O)CN(CC(N)=O)S(=O)(=O)c1ccccc1` [CBK262490], for which the “% of control remaining” value turned out to be 122.693%.

For `O=C(CNC(=S)NC(=O)c1ccc(Br)o1)c1ccccc1` [CBK265310], the “% of control remaining” value is given as 101.224%.

`CCCC/C=C/c1nccnc1NCc1ccc2c(c1)OCO2` [CBK037304]: the “% of control remaining” value worked out at 164.872%.

Regarding `Cc1ccccc1OCC1CCCN(C(=O)C2CC(=O)OC2(C)C)C1` (stereo not shown) [CBK282062], the “% of control remaining” value came out at 107.853%.

For `Cc1nnc([C@H]2CCN(Cc3cccs3)C2)o1` [CBK289393], the “% of control remaining” value was determined as 141.325%.

Consider `Cc1ccc(Cl)cc1NC(=O)CC(C(=O)O)N(C)C` (stereo not shown) [CBK267105], for which the “% of control remaining” value was determined as 118.741%.

Turning to `Cc1ccsc1CN1CCCCC1CO` (stereo not shown) [CBK026348], the “% of control remaining” value was determined as 106.876%.

Take `CC(C)(C)C(=O)NCc1ccc(C(=O)CSc2n[nH]c(=O)n2C2CC2)s1` [CBK295653]: the “% of control remaining” value is recorded as 127.634%.

Regarding `Nc1nonc1-c1nc2ccccc2n1Cc1cc2c(cc1Br)OCO2` [CBK267961], the “% of control remaining” value amounted to 108.289%.

Turning to `O=C(NCC1(CCO)CC1)c1c[nH]nc1-c1cc2ccccc2o1` [CBK306163], the “% of control remaining” value is given as 113.448%.

`COc1ccc(CNC(=O)C2CC(=O)N(c3ccc(O)cc3)C2)cc1` (stereo not shown) [CBK270125]: the “% of control remaining” value amounted to 97.8413%.

In the case of `Cc1cc(C)n(CCCNC(=O)Nc2cccnc2)n1` [CBK304820], the “% of control remaining” value is given as 94.027%.

In the case of `CC(C)N(C(=O)CN1C(=O)N2CCCN=C2c2ccccc21)C(C)C` [CBK284400], the “% of control remaining” value stood at 82.2993%.

For `O=C(O)CCc1ccc(-c2cn3ccnc3c(N3CCOCC3)n2)cc1` [CBK066166], the “% of control remaining” value stood at 170.372%.

Take `Cc1cc(CNC(=O)C(C)n2cnc3ccccc32)on1` (stereo not shown) [CBK282196]: the “% of control remaining” value was 127.476%.

Turning to `O=C1CCC(C(=O)Nc2cnc(-c3cccc(C(F)(F)F)c3)c(-c3cccnc3)n2)=NN1` [CBK036950], the “% of control remaining” value was determined as 120.1%.

Regarding `O=C(O)CC1C(=O)NCCN1Cc1ccccc1Cl` (stereo not shown) [CBK270114], the “% of control remaining” value is listed as 132.835%.

As for `CCCC(=O)c1ccc(S(=O)(=O)N2CCN(Cc3cccc(Br)c3)CC2)cc1` [CBK063146], the “% of control remaining” value stood at 84.7339%.

For `NC(=O)c1cccc(OCCOc2nccnc2N2CCNCC2)c1` [CBK014338G], the “% of control remaining” value stood at 95.3178%.

As to `CC(C)c1cc(C(=O)NC2CCOc3ccccc32)no1` (stereo not shown) [CBK283065], the “% of control remaining” value turned out to be 96.7422%.

For `CC(C)(C)c1cc(CCCOC(=O)CNC2CCCCC2)cc(C(C)(C)C)c1O` [CBK261998], the “% of control remaining” value is 100%.

Take `C[C@@H](c1ccccc1)n1c(=O)[nH]c2ncc(-c3cccc(C(=O)NCCN(C)C)c3)nc21` [CBK064376]: the “% of control remaining” value is on record as 153.654%.

With `Cc1ccn(CCNC(=O)CC2CC3CCC2C3)n1` (stereo not shown) [CBK282068], the “% of control remaining” value was 109.939%.

Consider `O=C1NCC2(CCCN(Cc3ccccc3F)C2)Oc2ccccc21` (stereo not shown) [CBK284901], for which the “% of control remaining” value was found to be 117.176%.

As for `CCCn1ccnc1-c1cn(Cc2cc(C(C)(C)C)n[nH]2)nn1` [CBK306791], the “% of control remaining” value is on record as 107.126%.

Regarding `CC(C)(C)OC(=O)NC1CCC(NCc2cc(F)cc(F)c2)CC1` (stereo not shown) [CBK056689], the “% of control remaining” value was 175.731%.

As for `Cc1cc(=O)n(CC(=O)NC(C)c2ccccn2)c2ccccc12` (stereo not shown) [CBK281820], the “% of control remaining” value amounted to 142.413%.

Take `O=C(CCc1cccnc1)NC1Cc2ccccc2C1` [CBK200352]: the “% of control remaining” value came to 124.466%.

In the case of `Cc1ccc(-c2nc3ccccc3[nH]2)cc1NC(=O)COc1cccc([N+](=O)[O-])c1` [CBK265932], the “% of control remaining” value stood at 207.825%.

As for `Cc1ccc(NC(=O)C2CCCCC2C(=O)O)cc1Cl` (stereo not shown) [CBK286938], the “% of control remaining” value amounted to 159.65%.

For `Cc1ccc(OCCn2c(=N)n(CCN3CCOCC3)c3ccccc32)cc1` [CBK269085B], the “% of control remaining” value was found to be 126.583%.

On to `CCn1c(=O)n(CC(=O)NCc2cccs2)c2cccnc21` [CBK283811], for which the “% of control remaining” value came out at 129.846%.

In the case of `CS(=O)(=O)c1cccc(C(=O)Nc2cnc(-c3ccc(F)c(Cl)c3)c(-c3cccnc3)n2)c1` [CBK036779], the “% of control remaining” value stood at 119.047%.

As for `NS(=O)(=O)c1ccc(NC(=S)NC(=O)/C=C/c2ccc([N+](=O)[O-])cc2)cc1` [CBK262176], the “% of control remaining” value worked out at 121.805%.

On to `COc1cc(C(=O)O)ccc1Oc1cnn(-c2ccccc2)c(=O)c1Cl` [CBK287032], for which the “% of control remaining” value turned out to be 126.161%.

For `COc1ccc(C(=O)CCCN2CCc3c([nH]c4ccc(OC)cc34)C2)cc1` [CBK083515T], the “% of control remaining” value was determined as 122.349%.

On to `COC(=O)CCC(=O)N1CCc2c([nH]c3ccccc23)C12CCN(CCCc1ccccc1OC)C2` (stereo not shown) [CBK074952], for which the “% of control remaining” value came out at 118.932%.

For `Cc1nc(C)n(CC2CCCN(Cc3ccc(C#N)cc3)C2)n1` (stereo not shown) [CBK305082], the “% of control remaining” value is 111.196%.

Consider `O=[N+]([O-])c1ccc(/C=N/n2c(S)nnc2COc2ccccc2)cc1` [CBK265240], for which the “% of control remaining” value stood at 122.084%.

As to `Cc1cc(S(=O)(=O)N(CCC#N)Cc2ccccc2)c(C)cc1Cl` [CBK043461], the “% of control remaining” value amounted to 113.648%.

Regarding `CC(C)c1ccc(S(=O)(=O)N2CCN(c3ncnc4c3oc3ccccc34)CC2)cc1` [CBK296936], the “% of control remaining” value was determined as 120.529%.

`NS(=O)(=O)c1cccnc1NCc1ccccc1` [CBK288448]: the “% of control remaining” value is recorded as 128.114%.

With `O=C(O)c1cccc(NC(=O)c2ccc3c(c2)C(=O)N(Cc2cccnc2)C3=O)c1` [CBK265523], the “% of control remaining” value stood at 100%.

Regarding `c1ccc(-c2ccc(Nc3ccc4c(c3)OCCO4)nc2)cc1` [CBK037802], the “% of control remaining” value is reported as 151.816%.

On to `N#Cc1ccc(Oc2cccc(C(F)(F)F)c2)c(F)c1` [CBK002801], for which the “% of control remaining” value is listed as 125.974%.

Regarding `CCOC(=O)C1(NC(=O)C2(Oc3cccnc3C)CCNCC2)CCC1` [CBK306688], the “% of control remaining” value is recorded as 149.516%.

In the case of `O=C1CN(C(=O)NC2CCc3ccccc32)CCN1` (stereo not shown) [CBK155878], the “% of control remaining” value is given as 104.109%.

For the compound `Cc1nn(C)c(C)c1CCn1cncc1-c1ccc2c(c1)CC(C)N2C` (stereo not shown) [CBK281788], the “% of control remaining” value worked out at 111.456%.

With `COCc1nnc(Sc2cc(NC(C)C)ncn2)s1` [CBK093784], the “% of control remaining” value is listed as 103.099%.

For the compound `CN(CC1(C)COC1)C(=O)c1ccc2c(c1)ncn2C1CC1` [CBK281718], the “% of control remaining” value worked out at 129.07%.

As for `O=S(=O)(Nc1cnc2ccccc2c1)c1cccs1` [CBK043694], the “% of control remaining” value is reported as 158.523%.

As for `CC[C@H](Cn1ncc2ccccc2c1=O)NC(=O)C(C)(C)C` [CBK284304], the “% of control remaining” value is given as 135.021%.

Consider `O=C(CSc1ccc2ccccc2n1)NNC(=O)c1cccc([N+](=O)[O-])c1` [CBK262506], for which the “% of control remaining” value is given as 129.367%.

As for `CCN(CC)C(=O)c1cccc(NC(=O)Cc2cn3ccsc3n2)c1` [CBK305353], the “% of control remaining” value turned out to be 99.7964%.

Turning to `Cc1nc(-c2ccccc2)ncc1COC(=O)N1CCOCC1` [CBK200147], the “% of control remaining” value is reported as 99.3883%.

Consider `Cc1ccc([N+](=O)[O-])cc1S(=O)(=O)Nc1ccc(O)c(Sc2nc3ccccc3s2)c1` [CBK266936], for which the “% of control remaining” value is recorded as 164.357%.

In the case of `C=CCOc1c(Br)cc(CNc2ccc(C(=O)O)cc2)cc1OC` [CBK267202], the “% of control remaining” value was 68.1001%.

On to `CN1CCN(CCCNC(=O)c2ccc(-c3ccoc3)nc2)CC1` [CBK156257], for which the “% of control remaining” value turned out to be 129.131%.

Turning to `O=C1c2cc(S(=O)(=O)NCc3ccco3)ccc2-c2ccc(S(=O)(=O)NCc3ccco3)cc21` [CBK262250], the “% of control remaining” value was determined as 116.505%.

Consider `NS(=O)(=O)c1ccc(NC(=S)NNC(=O)c2ccc(Br)o2)cc1` [CBK266972], for which the “% of control remaining” value was found to be 172.548%.

In the case of `Cc1ccccc1Oc1ccccc1NC(=O)CN1CCCCC1` [CBK015781C], the “% of control remaining” value is reported as 87.8986%.

Regarding `CCOc1cc(NC2CCN(C(=O)NCC(F)F)CC2)ncn1` [CBK305485], the “% of control remaining” value was found to be 149.711%.

Consider `COc1ccccc1N1CCN(C(=O)NCC2CCCCC2)CC1` [CBK155588], for which the “% of control remaining” value is 109.407%.

Turning to `Clc1ccc(SCCCNCCN2CCOCC2)cc1` [CBK268603C], the “% of control remaining” value is reported as 146.619%.

Take `CC(=O)c1cccc(NC(=O)Nc2cccc(S(=O)(=O)N3CCOCC3)c2)c1` [CBK266996]: the “% of control remaining” value was found to be 147.443%.

With `O=C(NC(=O)C1CCN(CCc2cccc(C(F)(F)F)c2)CC1)Nc1cccc2ccccc12` [CBK035070], the “% of control remaining” value was determined as 115.539%.

`CCC1(CC)OC(NC2CCCc3ccccc32)=NC1=O` (stereo not shown) [CBK126555]: the “% of control remaining” value was 117.299%.

Take `O=C(c1cc(Br)cc2c1OCC2)N1CCCCC1` [CBK007109]: the “% of control remaining” value stood at 117.887%.

Regarding `Oc1ccc(Cl)cc1/C=N/c1ccc(-c2cc(-c3ccc(/N=C/c4cc(Cl)ccc4O)cc3)ncn2)cc1` [CBK261626], the “% of control remaining” value worked out at 122.992%.

As to `O=C(Nc1ccc(-c2c3ccccc3c(-c3ccc(NC(=O)c4cccc5ccccc45)cc3)c3ccccc23)cc1)c1cccc2ccccc12` [CBK261164], the “% of control remaining” value is given as 118.024%.

Take `Clc1ccc(-c2cc(N3CCN(c4ccccn4)CC3)ncn2)cc1` [CBK091085]: the “% of control remaining” value is 129.788%.

For `CCOC(=O)N1CCC(NC(=O)N2CCN(C3CCN(C)CC3)CC2)CC1` [CBK156113], the “% of control remaining” value is reported as 116.132%.

As for `CS(=O)(=O)c1ccccc1C(=O)n1ccn(-c2ccc(Oc3ccccc3)cc2)c1=O` [CBK106647], the “% of control remaining” value is 100%.

The values are drawn from PMC12040169 (PLOS Biology, 2025).
